Structures are written as SMILES. ± gives the standard deviation of the averaged measurements. In all, about 1,600 compounds were measured (“normalized growth (OD600, IQM-normalized) in LPM”: median about 1, lowest 2% from about 0.014 on). This is one part of the list.

In the experiment the test system is Salmonella enterica serovar Typhimurium SL1344. As to the kind of experiment: normalized growth (OD600, IQM-normalized) in LPM (fraction of plate interquartile mean); higher = more bacterial growth (less inhibition). The note with it: LPM pH 5.8; 10 µM; 16 h.
`O=C(O)C1=C(CSc2nnnn2CS(=O)(=O)O)CS[C@@H]2[C@H](NC(=O)[C@H](O)c3ccccc3)C(=O)N12`: the normalized growth worked out at 1.01 ± 0.024.
As to `CC(C)[N+]1(C)[C@@H]2CC[C@H]1C[C@@H](OC(=O)C(CO)c1ccccc1)C2` (some centres undefined), the normalized growth worked out at 0.9 ± 0.093.
The compound `Cc1ccc(-c2cc(C(F)(F)F)nn2-c2ccc(S(N)(=O)=O)cc2)cc1` showed a normalized growth of 1.11 ± 0.02.
With `Nc1ccc(S(=O)(=O)Nc2nccs2)cc1` the figure was 1.03 ± 0.026; with `CN[C@H]1CC[C@@H](c2ccc(Cl)c(Cl)c2)c2ccccc21`, 1.02 ± 0.033; with `CC[C@H]1OC(=O)[C@H](C)[C@@H](O[C@H]2C[C@@](C)(OC)[C@@H](O)[C@H](C)O2)[C@H](C)[C@@H](O[C@@H]2O[C@H](C)C[C@H](N(C)C)[C@H]2O)[C@](C)(O)C[C@@H](C)CN(C)[C@H](C)[C@@H](O)[C@]1(C)O`, 0.566 ± 0.0065.
With `COC(=O)[C@H](Cc1ccccc1)NC(=O)[C@@H](N)CC(=O)O` the figure was 0.914 ± 0.051; with `CO/N=C(\C(=O)N[C@@H]1C(=O)N2C(C(=O)O)=C(COC(C)=O)CS[C@H]12)c1csc(N)n1`, 0.0479 ± 0.0089.
Consider `O=C(NCCCN1CCOCC1)c1ccc(Cl)cc1`, for which the normalized growth came out at 1.02 ± 0.093.
Then `COc1cc(CNC(=O)CCCC/C=C/C(C)C)ccc1O`, with 0.913 ± 0.12; and `C[C@]12CC[C@@H]3c4ccc(O)cc4C[C@@H](CCCCCCCCC[S+]([O-])CCCC(F)(F)C(F)(F)F)[C@H]3[C@@H]1CC[C@@H]2O` (some centres undefined), with 0.902 ± 0.026; and `O=C(CCCl)NCCc1ccccc1`, with 0.985 ± 0.086.
Then `CC(=O)Nc1nnc(S(N)(=O)=O)s1`, with 1.11 ± 0.014.
For the compound `CC(=O)Nc1c(I)cc(I)c(C(=O)O)c1I`, the normalized growth is 0.949 ± 0.12.
The compound `Cc1cc2cc3c(C)cc(=O)oc3c(C)c2o1` yielded a normalized growth of 0.94 ± 0.069.
With `CC(C)Oc1ccc2c(=O)c(-c3ccccc3)coc2c1` the figure was 1.1 ± 0.058; with `CCCCOc1cc(C(=O)OCCN(CC)CC)ccc1N`, 1.16 ± 0.043; with `C[N+](C)(C)CC(O)CC(=O)[O-]` (centres undefined), 1.05 ± 0.048.
Compound `CCCCC(CC)COC(=O)CC(C(=O)OCC(CC)CCCC)S(=O)(=O)O` (centres undefined) showed a normalized growth of 1 ± 0.029.
Then `C[C@H]1C[C@H]2[C@@H]3CCC4=CC(=O)C=C[C@]4(C)[C@@]3(F)[C@@H](O)C[C@]2(C)[C@@]1(O)C(=O)COP(=O)(O)O`, with 1.12 ± 0.015.
With `Nc1ncnc2c1ncn2[C@@H]1O[C@H](CO)[C@@H](O)[C@@H]1O` the figure was 0.895 ± 0.014; with `C[C@@](Cc1ccc(O)c(O)c1)(NN)C(=O)O`, 0.973 ± 0.049.
Then `CCOc1nc2cccc(C(=O)O)c2n1Cc1ccc(-c2ccccc2-c2nnn[nH]2)cc1`, with 1 ± 0.06.
The compound `CC[C@H](C)[C@H](N)C(=O)O` returned a normalized growth of 1.03 ± 0.033.
Then `Oc1c(Cl)cc(Cl)c2cccnc12`, with 0.0401 ± 0.014; and `c1ccc(-c2ccc(C(c3ccccc3)n3ccnc3)cc2)cc1` (centres undefined), with 1.08 ± 0.03; and `O=C1CC[C@@H](C(=O)N2CSC[C@H]2C(=O)O)N1`, with 1.1 ± 0.074.
Then `CN(C)CCC(c1ccc(Br)cc1)c1ccccn1` (centres undefined), with 0.936 ± 0.027.
`N#Cc1ccc2c(c1)N(CCCN1CCC(O)CC1)c1ccccc1S2` had a normalized growth of 1.09 ± 0.035.
With `CC(C)NCC(O)COc1ccc(CC(N)=O)cc1` (centres undefined) the figure was 1.08 ± 0.018; with `Cn1c(=O)c2c(ncn2CC2OCCO2)n(C)c1=O`, 1.11 ± 0.079.
With `COC(=O)Nc1nc2cc(Sc3ccccc3)ccc2[nH]1` the figure was 0.987 ± 0.024; with `CC(=O)N(CC(O)CO)c1c(I)c(C(=O)NCC(O)CO)c(I)c(C(=O)NCC(O)CO)c1I` (centres undefined), 1.05 ± 0.053; with `CN1CCN(CC(=O)N2c3ccccc3C(=O)Nc3cccnc32)CC1`, 0.851 ± 0.067.
Then `CC(=O)N(CC(O)CO)c1c(I)c(C(=O)NCCO)c(I)c(C(=O)NCC(O)CO)c1I` (centres undefined), with 1.05 ± 0.036.
`Clc1cccc(Cl)c1NC1=NCCN1` showed a normalized growth of 1.26 ± 0.077.
With `C[C@]12C=CC(=O)N[C@@H]1CC[C@@H]1[C@@H]2CC[C@]2(C)[C@@H](C(=O)Nc3cc(C(F)(F)F)ccc3C(F)(F)F)CC[C@@H]12` the figure was 1.034 ± 0.008; with `CO[C@H]1/C=C/O[C@@]2(C)Oc3c(C)c(O)c4c(O)c(c5c(nc6cc(C)ccn65)c4c3C2=O)NC(=O)/C(C)=C\C=C\[C@H](C)[C@H](O)[C@@H](C)[C@@H](O)[C@@H](C)[C@H](OC(C)=O)[C@@H]1C`, 0.0104 ± 0.00017.
Then `Cc1cc(O)c(C(=O)N[C@@H](C(=O)N[C@@H]2C(=O)N3C(C(=O)O)=C(CSc4nnnn4C)CS[C@H]23)c2ccc(O)cc2)cn1`, with 0.9456 ± 0.0058; and `CCCNC(=O)NS(=O)(=O)c1ccc(Cl)cc1`, with 1.19 ± 0.22; and `CCN(CC)C(C)CN1c2ccccc2Sc2ccccc21` (centres undefined), with 1.07 ± 0.067.
Then `CC(=O)O[C@]1(C(C)=O)CC[C@H]2[C@@H]3C=C(Cl)C4=CC(=O)CC[C@]4(C)[C@H]3CC[C@@]21C`, with 1.04 ± 0.054.
`CNCCc1ccccn1` yielded a normalized growth of 1.04 ± 0.031.
Then `CC1=C(C)C(=O)C(C(CCCCCC(=O)O)c2ccccc2)=C(C)C1=O` (centres undefined), with 1.11 ± 0.037.
Then `CC1CC2C3CCC4=CC(=O)C=CC4(C)C3(F)C(O)CC2(C)C1C(=O)CO` (centres undefined), with 0.992 ± 0.02.
Then `CC=CC(=O)N(CC)c1ccccc1C`, with 1.11 ± 0.13; and `CN(C)C(=N)NC(=N)N`, with 0.954 ± 0.016.
The compound `NCCCCCC(=O)O` returned a normalized growth of 0.956 ± 0.018.
With `Nc1nc2c(ncn2COC(CO)CO)c(=O)[nH]1` the figure was 1.06 ± 0.031; with `CCCCCCCCCCCCCCCC(=O)OC[C@H](O)[C@H]1OC(=O)C(O)=C1O`, 0.86 ± 0.02.
Then `CCN(CC)C(=O)c1ccc(O)c(OC)c1`, with 0.825 ± 0.086; and `O=C(c1ccc(F)cc1)C1CCN(CCn2c(=O)[nH]c3ccccc3c2=O)CC1`, with 1.06 ± 0.065; and `CC(=O)[C@@]1(O)CC[C@H]2[C@@H]3CCC4=CC(=O)CC[C@]4(C)[C@H]3CC[C@@]21C`, with 0.894 ± 0.077.
With `Clc1ccc2c(c1)CCc1cccnc1C2=C1CCNCC1` the figure was 1.02 ± 0.024; with `O=C1NCC2(CCN(CCc3ccccc3)CC2)O1`, 0.9961 ± 0.0021.
`CN(C)CCOC(c1ccccc1)c1ccccc1.Cn1c(=O)c2[nH]c(Cl)nc2n(C)c1=O` displayed a normalized growth of 0.914 ± 0.015.
As to `CCCOc1ccc2[nH]c(NC(=O)OC)nc2c1`, the normalized growth stood at 0.944 ± 0.035.
Then `Cc1cc2nc3c(=O)[nH]c(=O)nc-3n(C[C@H](O)[C@H](O)[C@H](O)CO)c2cc1C`, with 0.894 ± 0.044; and `C[C@@H]1C[C@H]2[C@@H]3CCC4=CC(=O)C=C[C@]4(C)[C@@]3(F)[C@@H](O)C[C@]2(C)[C@@]1(O)C(=O)COP(=O)(O)O`, with 1.01 ± 0.047; and `CCN(CC)CCNC(C(=O)OCCC(C)C)c1ccccc1` (centres undefined), with 1.02 ± 0.046.
Then `C(=C\c1ccccc1)/CN1CCN(C(c2ccccc2)c2ccccc2)CC1`, with 1.12 ± 0.019.
Then `Cc1c(-c2cnccn2)ssc1=S`, with 0.976 ± 0.024; and `C[N+](C)(C)CC(=O)O`, with 1.03 ± 0.01.
On to `O=C(O)c1ccccc1C(=O)Nc1ccc(S(=O)(=O)Nc2nccs2)cc1`, for which the normalized growth was 0.919 ± 0.028.
